Source: patent US11099176B2 (Duke University, priority 2015, dated 2021)

Assay: Lactate-mediated fluorescence emission response of fluorescent conjugates (cysteine and fluorophore scan)
Assay type: biochemical
Details: dominant excited-state population in the absence of lactate
From the text: Semi-synthetic FRSs can be engineered by site-specifically attaching thiol-reactive, environmentally sensitive fluorophores that respond to ligand-mediated conformational changes. Identification of FRS candidates that can be used for sensing applications comprises three steps: • 1. Cysteine scan. Mutant lactate-binding proteins containing single cysteines are constructed for site-specific attachment of thiol-reactive fluorophores. […] Candidate positions fall into three classes: endosteric, replacing a residue that contacts the ligand directly; peristeric, located at the rim of the binding site; allosteric (Marvin et al., 1997, Proc Natl Acad Sci USA, 94, 4366-71; Marvin, 1998, J Am Chem Soc, 120, 7-11), located outside the binding site at sites that undergo local structural changes in concert with the hinge-bending motion. • 2. Fluorophore screening. […] Responses to ligand binding in which there is both a change in fluorescence emission intensity and spectral shape are essential for chemometric applications, because such changes enable ratiometric measurements. […]
We constructed seventeen single cysteine mutants in msLacBP6, exploring one endosteric, fourteen peristeric, and two allosteric positions. Two dominant electronic transitions give rise to fluorescence emission in these fluorophores with maxima in the blue (<500 nm) and green (>500 nm) regions, respectively.

B1: Y187C (conjugate)
chain: MATTWKIQSVWDAGTVGYDLFKEWCDGMEEKTGGELKFTCFPAKAVAADNNGLFDAVRNGVLQGMNPFTLYWSGKIPASVFLSSYPAGPDQPHQWDTMFYSLGMLEKTREIYKKFGLFYVGPIQHDANIIHSKQPINSLDDLKGLKMRLPGGMVAEVFAKFGVAAVSLPGSDIFPALEKGTIDAADCVGPAVNWELGFSQVTKYILMGPPGIMSVYQPVDLMDLTVNLRAWNALDPKLQQIVEDEVRIYSQKHYLAIQKRNIEAMKKFEAAGTTVTRLSQEDLQEFRRAAIPIWYSWANKDEDAREIFDMQLEYMMNDTVGYITEDDIKGMN
modifications: conjugated fluorophore; msLacBP6 (with signal peptide replaced with M)
Response Acrylodan Excited states (Acrylodan conjugate): b (b, blue (maxima < 500 nm))
Response Badan Excited states (Badan conjugate): g (g, green (maxima > 500 nm))
